No constants are given. Whether binding was seen depends on the method and setting. For part of these data: In cells and extracts the contact can be indirect. Some entries that bind do so weakly or less than the wild type.
Assays:
[1] = target: T1, ATAD3A (mouse, endogenous) (mouse (endogenous in HdhQ7, HdhQ111 and Neuro2a cells and mouse striatum)) (UniProt Q925I1); assay: proximity ligation; in situ Duolink PLA on fixed HdhQ7 and HdhQ111 cells, rabbit anti-ATAD3A with mouse anti-Mitofilin or mouse anti-Cytochrome C
T1 sequence: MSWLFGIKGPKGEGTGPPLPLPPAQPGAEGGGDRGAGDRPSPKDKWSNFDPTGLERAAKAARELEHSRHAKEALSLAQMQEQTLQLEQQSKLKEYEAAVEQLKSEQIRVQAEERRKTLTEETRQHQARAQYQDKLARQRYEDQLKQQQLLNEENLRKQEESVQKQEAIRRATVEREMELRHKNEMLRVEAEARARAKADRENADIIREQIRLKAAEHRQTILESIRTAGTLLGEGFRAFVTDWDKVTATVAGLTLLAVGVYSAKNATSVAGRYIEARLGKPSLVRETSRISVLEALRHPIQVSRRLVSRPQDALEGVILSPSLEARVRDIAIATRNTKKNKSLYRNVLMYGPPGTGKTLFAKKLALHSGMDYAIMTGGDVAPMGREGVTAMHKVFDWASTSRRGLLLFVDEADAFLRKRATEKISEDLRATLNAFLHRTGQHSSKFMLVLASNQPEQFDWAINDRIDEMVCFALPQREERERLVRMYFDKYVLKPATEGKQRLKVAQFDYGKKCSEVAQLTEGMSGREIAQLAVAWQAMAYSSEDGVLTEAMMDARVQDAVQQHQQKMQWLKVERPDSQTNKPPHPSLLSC

The chains behind the UniProt entries cited, without tags or fusion partners.
UniProt Q8BGV8: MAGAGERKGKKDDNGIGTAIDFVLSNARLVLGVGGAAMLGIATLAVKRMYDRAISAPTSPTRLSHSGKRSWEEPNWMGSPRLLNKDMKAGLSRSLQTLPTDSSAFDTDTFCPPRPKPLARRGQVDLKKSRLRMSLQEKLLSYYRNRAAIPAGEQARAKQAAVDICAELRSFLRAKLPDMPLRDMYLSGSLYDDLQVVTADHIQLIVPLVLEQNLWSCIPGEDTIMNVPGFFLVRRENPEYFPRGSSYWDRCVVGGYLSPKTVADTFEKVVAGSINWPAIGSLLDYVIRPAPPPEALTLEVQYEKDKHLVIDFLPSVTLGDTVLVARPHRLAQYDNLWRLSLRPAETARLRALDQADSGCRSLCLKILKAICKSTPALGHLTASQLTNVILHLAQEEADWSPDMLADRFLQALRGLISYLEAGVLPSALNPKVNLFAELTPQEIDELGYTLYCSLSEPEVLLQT
UniProt Q8K1M6: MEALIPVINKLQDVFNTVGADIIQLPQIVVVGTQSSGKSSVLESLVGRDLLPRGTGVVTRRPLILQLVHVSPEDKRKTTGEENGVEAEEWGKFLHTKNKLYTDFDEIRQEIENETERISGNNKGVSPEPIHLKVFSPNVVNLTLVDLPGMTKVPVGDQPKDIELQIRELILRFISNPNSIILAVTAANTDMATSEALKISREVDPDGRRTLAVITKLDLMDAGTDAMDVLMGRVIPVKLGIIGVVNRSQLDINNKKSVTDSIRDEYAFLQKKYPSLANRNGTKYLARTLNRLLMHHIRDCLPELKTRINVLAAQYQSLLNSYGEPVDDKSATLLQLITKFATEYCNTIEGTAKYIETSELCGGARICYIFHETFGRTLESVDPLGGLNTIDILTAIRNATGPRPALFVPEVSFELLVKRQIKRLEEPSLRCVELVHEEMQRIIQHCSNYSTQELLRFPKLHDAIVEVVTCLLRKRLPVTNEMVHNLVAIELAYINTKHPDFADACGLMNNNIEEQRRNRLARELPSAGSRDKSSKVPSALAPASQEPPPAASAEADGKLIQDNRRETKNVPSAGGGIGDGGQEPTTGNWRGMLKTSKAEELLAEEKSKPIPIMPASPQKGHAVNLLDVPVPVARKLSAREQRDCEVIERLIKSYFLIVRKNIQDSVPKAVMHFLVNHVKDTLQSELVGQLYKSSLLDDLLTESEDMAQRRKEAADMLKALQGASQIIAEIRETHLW
UniProt P62897: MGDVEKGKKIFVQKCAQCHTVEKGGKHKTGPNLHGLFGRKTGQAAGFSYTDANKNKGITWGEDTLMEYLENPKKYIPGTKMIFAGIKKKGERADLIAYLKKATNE

[2] = target: T2, Fis1 (mouse, endogenous) (mouse (endogenous in HdhQ111 cells)) (UniProt Q9CQ92); assay: co-IP; HdhQ111 cells treated with TAT or DA1, cross-linked with 1% FA for 20 min at r.t. before lysis (Drp1-Fis1)
T2 sequence: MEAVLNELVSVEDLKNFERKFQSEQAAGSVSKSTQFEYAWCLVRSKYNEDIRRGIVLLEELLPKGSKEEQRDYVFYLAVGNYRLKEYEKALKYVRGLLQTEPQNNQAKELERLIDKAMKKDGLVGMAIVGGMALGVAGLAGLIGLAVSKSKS

[3] = target: MIEF1 (mouse, endogenous) (mouse (endogenous in HdhQ111 cells)) (UniProt Q8BGV8); assay: co-IP; HdhQ111 cells treated with TAT or DA1, cross-linked with 1 mM DSP for 10 min at r.t. before lysis (Drp1-Mff, Drp1-MiD51)
[4] = target: T3, Mff (mouse, endogenous) (mouse (endogenous in HdhQ111 cells)) (UniProt Q6PCP5); assay: as above
T3 sequence: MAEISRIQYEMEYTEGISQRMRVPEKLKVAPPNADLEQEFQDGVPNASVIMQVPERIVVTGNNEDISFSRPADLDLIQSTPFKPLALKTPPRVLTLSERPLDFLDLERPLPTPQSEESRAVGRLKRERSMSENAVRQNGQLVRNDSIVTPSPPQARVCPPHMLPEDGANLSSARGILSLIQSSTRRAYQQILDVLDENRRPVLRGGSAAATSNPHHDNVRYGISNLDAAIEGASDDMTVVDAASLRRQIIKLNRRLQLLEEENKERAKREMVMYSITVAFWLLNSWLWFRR

[5] = target: Dynamin-related protein 1 (mouse, endogenous) (mouse (endogenous in HdhQ7 and HdhQ111 striatal cells and mouse striatum)) (UniProt Q8K1M6); assay: non-reducing SDS-PAGE and western blot; endogenous protein in total lysates of cells or tissues, 8% SDS-PAGE in the presence or absence of β-mercaptoethanol, WB with anti-ATAD3A or anti-Drp1
[6] = target: T1, ATAD3A (mouse, endogenous) (mouse (endogenous in HdhQ7, HdhQ111 and Neuro2a cells and mouse striatum)); assay: co-IP; endogenous proteins, total lysates (1% Triton X-100, 150 mM NaCl) of HdhQ7 and HdhQ111 cells, of wildtype striatal cells exposed to 3-NP (5 mM, 4 h) and of striatal extracts of YAC128, R6/2 and wildtype mice

Row | binding [1] | binding [2] | binding [3] | binding [4] | binding [5] | binding [6] | Substance
1 | no binding |  |  |  |  |  | Cytochrome c (mouse, endogenous) (from UniProt P62897 1-105)
2 |  | binds | binds | binds | binds | binds | Dynamin-related protein 1 (mouse, endogenous) (from UniProt Q8K1M6 1-736)

— article PMC6435701
